The values below come from patent publication US20170290821A1 (priority 2014, published 2017).

The nature of series [1]: Cytotoxicity test (Cell Counting Kit-8), A549. As to conditions: human, A549 cells, read-out: CC50 (50% cytotoxicity concentration). Format: cell-based. On the procedure:
(§1) First, as test compound solutions, test compounds were prepared in 1% dimethylsulfoxide-containing MEMs so that a final concentration was 1000, 100, 10, 1, 0.1, 0.01, or 0.001 μM.
(§2) Cell fluids in which MDCK cells, A549 cells, and HEK293 cells were prepared at concentrations of 6.25×10^5 cells/mL, 2.5×10^6 cells/mL, and 1.25×10^5 cells/mL in minimum essential mediums (MEMs) were added to a 96-well plate at 0.1 ml/well and the cells were seeded. The cells in the 96-well plate were cultured in a carbon dioxide incubator at 37° C. and washed with MEM the day after the seeding date. In the washed cells in the 96-well plate, 0.1 mL of each test compound solution was added to three wells for each concentration and the cells in the 96-well plate were then cultured in a carbon dioxide incubator at 37° C. for 48 hours. After the culture, a Cell Counting Kit-8 solution (commercially available from Dojindo Molecular Technologies, Inc.) was added to each well at 10 μL and culture was additionally performed at 37° C. for several hours. After the culture, an absorbance at 450 nm of a solution of each well in the 96-well plate was measured using a microplate reader. An absorbance value when a solvent (1% dimethylsulfoxide-containing MEM) was added in place of the test compound was set to 100% at which the whole cells survived. […]

The nature of series [2]: Cytotoxicity test (Cell Counting Kit-8), HEK293. The format is cell-based. The conditions noted are these: human, HEK293 cells, 293 (HEK293) cells, read-out: CC50 (50% cytotoxicity concentration). On the procedure:
as §1, §2
(In general: Tetrazolium assays rely on reduction of a dye to a coloured formazan, in cell work by metabolically active cells.)

The structures appear in SMILES notation. A value given as a limit tells only on which side of the number the result lay.

As to `CCS(=O)(=O)N1CC(CC#N)(n2cc(-c3ncnc4[nH]ccc34)cn2)C1` [Compound J6, 2-[1-ethylsulfonyl-3-[4-(7H-pyrrolo[2,3-d]pyrimidin-4-yl)-pyrazol-1-yl]azetidin-3-yl]acetonitrile], the CC50 at 48 h in series [1] and in series [2] was > 316 µM each time.
